Literature values in patent US20240226226A1, “KAPPA-OPIOID RECEPTOR AGONIST IMPLANTS FOR TREATMENT OF PRURITUS” (Titan Pharmaceuticals, Inc., priority 2021, published 2024).
At least one compound was matched to its structure with a doubt left.

Chains of the proteins cited; added tags and fusions are not shown. Lines headed by an entry give the natural chain unless they say otherwise; changes in a name come on top.
UniProt P41145: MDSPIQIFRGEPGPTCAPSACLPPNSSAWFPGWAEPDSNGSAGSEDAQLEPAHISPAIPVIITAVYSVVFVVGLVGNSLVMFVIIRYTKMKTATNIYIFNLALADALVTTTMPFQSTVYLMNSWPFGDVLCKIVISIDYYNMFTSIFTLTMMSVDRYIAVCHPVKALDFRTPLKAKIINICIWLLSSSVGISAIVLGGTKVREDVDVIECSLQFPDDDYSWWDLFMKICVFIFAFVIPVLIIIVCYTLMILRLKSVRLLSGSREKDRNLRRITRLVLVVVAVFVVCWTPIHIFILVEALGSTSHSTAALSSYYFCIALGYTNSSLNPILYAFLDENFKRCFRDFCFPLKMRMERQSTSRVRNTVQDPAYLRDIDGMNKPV

Target: kappa opioid receptor (Homo sapiens, UniProt P41145)
Conditions: 75% receptor occupancy; reference line in FIG. 4; cited from earlier work

Compound: CC(C)C[C@@H](NC(=O)[C@@H](Cc1ccccc1)NC(=O)[C@H](N)Cc1ccccc1)C(=O)N[C@H](CCCCN)C(=O)N1CCC(N)(C(=O)O)CC1 [difelikefalin]
- plasma level required for 75% kappa opioid receptor occupancy: 320 pg/mL
